The campaign covered roughly 2,800 compounds. Fewer than 10 were called active. About 7% were inconclusive and are not listed. Calls follow the shape of the dose curve; as a rule, active = well fitted inhibition curve with a large enough effect; inconclusive = small, poorly fitted or top-dose-only effect; inactive = no such curve, though single readings can be large or run the other way. The list shows a part of the results.
target: Metallo-beta-lactamase type 2 (Klebsiella pneumoniae) (UniProt C7C422); assay: qHTS to identify inhibitors of the New Delhi Metallo-beta-lactamase (NDM): Nitrocefin screen against the machine-based learning selections.; also: % of control where 0% means no effect; conditions: NDM-1 enzyme, nitrocefin hydrolysis, absorbance 485 nm; activity, negative = inhibition: at the top concentration
Summary of the method: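 NDM-1 (2 nM final) in 50 mM HEPES pH 7.0, 1 uM Zn2SO4, 0.01% Tween20 was preincubated with compounds for >30 min. Nitrocefin (16.7 uM final) was read at 485 nm after 15 min, and meropenem (50 uM final) at 300 nm after 30 min.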

Protein sequences, listed by entry. Tags and fused reporters are not part of them. Lines headed by an entry give the natural chain unless they say otherwise; changes in a name come on top.
UniProt C7C422: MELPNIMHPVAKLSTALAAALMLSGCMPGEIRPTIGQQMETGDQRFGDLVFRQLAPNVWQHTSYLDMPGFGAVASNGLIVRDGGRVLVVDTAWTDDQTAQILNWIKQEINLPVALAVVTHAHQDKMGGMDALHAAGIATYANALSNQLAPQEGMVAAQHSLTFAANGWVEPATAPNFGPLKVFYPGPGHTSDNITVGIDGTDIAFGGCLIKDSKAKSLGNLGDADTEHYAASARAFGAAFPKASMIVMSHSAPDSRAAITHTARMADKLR

activity, negative = inhibition, inactive:
CS(=O)(=O)c1ccc(CN2C[C@H](O)C[C@H]2c2nc(-c3cnccn3)no2)cc1 0.786% [at 57.5 µM]
COc1ccc2nc3n(c2c1)[C@@H](CNC(=O)NC(C)C)COC3 -2% [at 57.5 µM]
Cc1ccccc1C(=O)N1C[C@@H](F)C[C@H]1C(=O)N1CCOCC1 -0.212%
Cc1ccc(O)c(CN2CC[C@@H](c3ccc4ccccc4c3)[C@H](O)C2)n1 7.16%
O=C1CO[C@H](c2ccc(NS(=O)(=O)c3cccc(F)c3)cc2)[C@@H](CO)N1Cc1ccncc1 -4.75%
N#Cc1cccc(NC(=O)O[C@@H]2CO[C@H]3[C@@H]2OC[C@@H]3Nc2nccc(-c3ccc4c(c3)OCO4)n2)c1 9.26%
COc1cccc(-c2nc3c([nH]2)CN(c2cc(C4CC4)ncn2)CC3)c1 4.21%
Cc1nnc(CN2CCN(C)C3(CCC(=O)N(CC(=O)O)CC3)C2)o1 (stereo not drawn) -4.3%
COc1ccc(CN2C(=O)[C@@H]3C[C@@H](CN3C3COC3)Oc3ccccc32)cc1 -4% [at 57.5 µM]
CN(C)C[C@H]1C[C@@H](CO)CN(C(=O)c2ccccc2OC(F)(F)C(F)F)C1 -4.32%
c1ccc(N2CC3(CN(CC4CC4)CC3CNc3cccnc3)C2)cc1 (stereo not drawn) 7.54% [at 57.5 µM]
CC(=O)c1[nH]c(C)c(C(=O)N2CCC3(CC2)[C@H](O)C[C@@H]3OCCO)c1C 3.47%
Cn1ccnc1CNCC1(COc2cccnc2)C[C@@H](O)[C@@H](O)C1 (stereo partly drawn) -13.7%
CN(Cc1cc(-c2cccs2)n[nH]1)C(=O)c1cn(CCN)nn1 3.42%
C=CCNC(=O)N[C@H]1CCN(C(=O)CC(C)(C)C)[C@@H]1C(=O)N[C@@H](C(=O)OC)C(C)C -4.68% [at 57.5 µM]
CC(C)CN(C(=O)CC1COc2ccc(C(=O)N(C)C)cc2N1C)C1CC1 (stereo not drawn) -5.95%
C[C@@H](NC(=O)[C@@]1(O)C[C@@H](O)[C@H](O)[C@@H](NC(=O)Nc2ccc(OC(F)(F)F)cc2)C1)C(N)=O -5.65%
CN1CCN(c2nc3c(s2)CN(C(=O)c2ccccc2)CC3)CC1 -1.94%
O=C(O)[C@H]1C[C@@H](C(=O)NCc2ccncc2)CN(C2CCOCC2)C1 -6.91%
CN1[C@@H](CCC(=O)N2CCC(O)CC2)CNC(=O)[C@@H]2[C@H]1CCN2Cc1cccc(OC(F)(F)F)c1 -0.719%
COc1ccc2nc(CO[C@H]3CN(C4CCC4)C[C@H]3F)[nH]c2c1 0.43% [at 57.5 µM]
COCC(=O)N[C@H]1C[C@H]2C(=O)NC[C@@H](CCC(=O)N3CCN(c4ccccn4)CC3)N2C1 -4.65%
O=C(CN1CC2CC(C1)[C@H]1CCCC(=O)N1C2)NCc1ccc2c(c1)OCO2 (stereo partly drawn) -0.216%
O=C(NCc1csc(-c2cnccn2)n1)C1NCCc2[nH]cnc21 (stereo not drawn) -2.75%
CNC(=O)c1cccc(-c2cnc(Nc3cccc(F)c3)c3c2CCO3)c1 -0.624% [at 57.5 µM]
COc1ccc(-c2cc(N3CCCC(NC(=O)c4cccn4C)C3)n[nH]2)cc1 (stereo not drawn) -7.8%
O=C(NC[C@H]1O[C@@H]2C[C@@H](CC(=O)N3CCOCC3)O[C@@H]2[C@@H]1O)Nc1cccs1 -9.01% [at 57.5 µM]
C[C@@H](NS(=O)(=O)c1ccccc1)c1onc(-c2ccccc2)c1C(=O)O -8.34% [at 57.5 µM]
Cc1nc(C(C)C)sc1C(=O)N1CCC(=O)N(CC2CC2)C(C(C)C)C1 (stereo not drawn) -3.58%
CC1=C[C@@H](CNC(=O)COc2ccccc2)[C@H](C(C)C)C[C@H]1Cc1nnc(-c2cncn2C)o1 -3.34%
CN1C[C@@H]2CCCN3CCC[C@@H]([C@H]23)[C@H]1CCCC(=O)Nc1ccc2c(c1)OCCO2 5.52%
COc1cccc([S+](=O)([O-])N2CCC3(CC2)C(=NC2CCCCC2)NC(=O)N3c2cccnc2)c1 -0.117%
CC[C@H]1CN(C(=O)Nc2ccccc2)CC[C@H]1CC(=O)N(C)CC#N 4.78% [at 57.5 µM]
COCC(=O)NC[C@@H]1C=C(C)[C@H](Cc2nc3ccc(C(=O)OC)cc3[nH]2)C[C@H]1C(C)C -9.29% [at 57.5 µM]
C[C@H]1CCCN1C(=O)c1nnc(CNc2ccc(C(=O)O)cc2)n1-c1ccccc1 -1.87% [at 57.5 µM]
O=C(c1ccco1)N1C[C@@H]2C(CN(CC#Cc3ccccc3)C3CC3)[C@@H]2C1 (stereo partly drawn) -6.11%
O=C(O)c1cc(Br)cc(S(=O)(=O)NC2CCCCC2)c1 -5.88%
O=C1CO[C@H]2CN(c3nccc(C(F)(F)F)n3)C[C@H]2N1Cc1ccc(F)cc1 1.03% [at 57.5 µM]
Cc1cccn2cc(C(=O)N3CCC4(CCCN(CC5CCC5)C4=O)C3)nc12 (stereo not drawn) 1.56%
NC(=O)c1cccc(-c2cc3c(cn2)CN(Cc2ccccc2)CCN3)c1 -4.54% [at 57.5 µM]
O=S(=O)(NC[C@H]1OC[C@@H](NCc2ccccc2F)[C@@H]1O)c1ccccc1 2.65% [at 57.5 µM]
NC(=O)Cc1c[nH]c2ncc(-c3cccc(CO)c3)cc12 1.52% [at 76.7 µM]
CN1C(=O)[C@@H]2C[C@@H](O)CN2C2(CN(Cc3cccc(F)c3)C2)C1=O 8.98% [at 57.5 µM]
COCCNC(=O)[C@@H]1CCC[C@@H](NC(=O)c2cc(C)n(C)n2)CN(C)C(=O)C1 -12% [at 57.5 µM]
NC(=O)c1cccnc1N1CCC2(CC1)CC(C(=O)O)N(C(=O)C1CC1)C2 (stereo not drawn) 5.46%
Fc1ccc(-c2cnc([C@@H]3COCCN3Cc3cnc4ccccc4c3)[nH]2)cc1 4.55% [at 57.5 µM]
COc1ccc(S(=O)(=O)N2CCC(c3noc(-c4ccncc4)n3)C2)cc1 (stereo not drawn) -5.77%
Cc1[nH]c2ccc(C(=O)N3CC[C@@](C)(O)[C@@H](O)C3)cc2c1C -0.0594%
CCN(CC)Cc1cnc2c(C(=O)N(C)Cc3cc(C)cc(C)n3)cnn2c1 1.08%
CC(C)C(=O)N1CCC(N2C(=O)C3(CCCC3)C2c2ccccc2)CC1 (stereo not drawn) -6.25%
Cc1ccc(C(=O)NC2CCN(c3ccc(F)cc3)C2=O)s1 (stereo not drawn) -2.33%
C[S+](=O)([O-])Nc1cccc(Nc2cnc3ccc(-c4ccccc4)nn23)c1 -3.67% [at 57.5 µM]
Cn1cncc1C(=O)N1CC(F)(F)C[C@H]1c1nc(C2CC2)no1 -3.91%
COc1ccc(-c2noc([C@@H]3C[C@H](NCc4ccc(N(C)C)cc4)CN3C)n2)cc1 13.4% [at 57.5 µM]
CC1=C[C@@H](CNC(=O)COc2ccccc2)[C@H](C(C)C)C[C@H]1CC(=O)N1CCN(C)CC1 0.523%
O=c1[nH]nc(CNCC2(O)CCCNC2)c2ccccc12 (stereo not drawn) -13.4%
Cc1nnc(-c2cc(N3CCN(c4ccccn4)CC3)ccn2)n1C1CCCCC1 -1.57% [at 57.5 µM]
O=C(NCC1CN(Cc2cccnc2)CC12CN(c1ccccc1)C2)Nc1ccccc1 (stereo not drawn) -3.01% [at 57.5 µM]
O=C1CCC2(CCCO2)CCN1Cc1ccc(C(F)(F)F)cc1 (stereo not drawn) -0.424%
O=C(NC[C@H]1O[C@@H](CO)[C@@H](O)[C@H]1N1CCCC1)c1ccc(F)c(Cl)c1 -2.6% [at 57.5 µM]
Cc1nn(-c2ccc(C(C)(C)C)cc2)c(C)c1[C@@H]1C=C[C@@H](NC(=O)NCc2ccccc2)C1 0.194% [at 57.5 µM]
COC[C@]1(O)CCN(S(=O)(=O)c2cccc(C(=O)O)c2)CC1(C)C 0.612%
COc1ccccc1N1CCN(C(=O)C[C@@H]2O[C@H](CNS(=O)(=O)c3ccc(Cl)cc3)[C@@H](O)[C@H]2O)CC1 -0.156%
Cc1ccccc1-c1cnc2[nH]cc(CC(=O)Nc3ccccn3)c2c1 6.11% [at 57.5 µM]
N[C@@H]1CC[C@H](C(=O)Nc2ccc(CC(=O)N3CCCC3)cc2)C1 -0.91%
c1cncc(CNc2cc(-c3cnc4ccccc4n3)c3cc[nH]c3n2)c1 11.1%
COc1ccccc1-c1[nH]nc2ncc(C(=O)Nc3ccc4[nH]ccc4c3)nc12 16.8% [at 57.5 µM]
CCn1c(CO)nnc1C1CC(NC(=O)Cc2ccc(-n3cnnn3)cc2)C1 (stereo not drawn) 0.346%
OCCC1CN(CCOc2ccc(F)cc2)CCN1CC1CCCCC1 (stereo not drawn) 2.55%
O=C(Nc1ccccc1)O[C@@H]1CO[C@H]2[C@@H]1OC[C@@H]2n1nnnc1Sc1ccccc1 -5.27% [at 57.5 µM]
N#Cc1cccc(NC(=O)N[C@H]2CO[C@H]3[C@@H]2OC[C@@H]3Nc2nccc(C3CCCC3)n2)c1 -0.927% [at 57.5 µM]
Cc1noc([C@@H](C)NC(=O)C2CCCC2)c1C(=O)O -7.57% [at 76.7 µM]
CC(CO)NS(=O)(=O)c1cccc(C(=O)NCCc2ncnn2C)c1 (stereo not drawn) 1.2%
CC(C)Cc1ccc(S(=O)(=O)N2CCCC(Cn3cnc4cccnc43)C2)cc1 (stereo not drawn) 351%
Cc1nnc(-c2cc(N3CCN(c4ccccn4)CC3)ccn2)n1-c1ccccc1 4.93% [at 57.5 µM]
Cn1ccnc1CN1C[C@@H]2C[C@H]1C(=O)N(CC1CC1)c1ccccc1O2 1.47% [at 57.5 µM]
COCCN1C(=O)[C@@H]2C[C@@H](CN2C)Oc2ccccc21 -12.8% [at 76.7 µM]
CCN(CC)C(=O)[C@@H]1CCC[C@@H](NS(=O)(=O)c2ccccc2)CN(C)C(=O)C1 0.626% [at 57.5 µM]
Cc1cc(F)ccc1-c1[nH]nc2ncc(-c3ccsc3)nc12 0.956% [at 57.5 µM]
CC(C)NC(=O)C[C@@H]1C[C@H]2O[C@H](CNCc3ccccc3Cl)[C@@H](O)[C@H]2O1 -0.815% [at 57.5 µM]
Cc1nn(-c2ccccc2)c(C)c1S(=O)(=O)N[C@@H]1[C@@H](N)[C@H]2CCO[C@H]21 0.344%
COc1cccc(S(=O)(=O)N2C[C@@H](C)[C@](O)(C3CCC3)C2)c1 -1.1%
COc1ccc(NC(=O)N2CC[C@H]3COC(=O)N3c3cc(C)ccc3C2)cc1 -5.74% [at 57.5 µM]
O=c1c2nc(-c3cccc(O)c3)ccc2ncn1-c1ccccc1 -5.8% [at 57.5 µM]
CCOC(=O)N1CCN(C(C(=O)O)c2ccc(OC)nc2OC)CC1 (stereo not drawn) -25.6%
Cc1ccc2cccc(OCCNC(=O)C3NCCc4[nH]cnc43)c2n1 (stereo not drawn) -7.14%
OC1CCC(NCc2ccc(-c3cnc4c(OCc5ccccc5)nccn34)cc2)CC1 (stereo not drawn) -3.4% [at 57.5 µM]
O=C(O)CCn1ncc2cc(OCc3ccc(-c4cccc(CO)c4)cc3)ccc21 28.6% [at 57.5 µM]
CC(C)CNC1(Cc2cc(CN(C)Cc3ccccc3)on2)COC1 -3.11% [at 57.5 µM]
C#CCN(C)Cc1nc(C2(O)CCN(C(C)=O)CC2)cs1 -2.39% [at 57.5 µM]
Cc1cc(C)c(CNC(=O)c2nc(-c3cccc(N4CCOCC4)c3)cc3[nH]ccc23)c(=O)[nH]1 1.13%
C=CCNC(=O)N[C@H]1C[C@H]2C(=O)Nc3ccc(-c4cccs4)cc3C(=O)N2C1 -3.78% [at 57.5 µM]
Cc1nn(-c2ccc(C(F)(F)F)cc2)c(C)c1[C@@H]1C=C[C@@H](NC(=O)C2CCCCC2)C1 0.821% [at 57.5 µM]

Filtered by structure: the compounds so far with a Cl atom.
activity, negative = inhibition, inactive:
O=C(NC[C@H]1O[C@@H](CO)[C@@H](O)[C@H]1N1CCCC1)c1ccc(F)c(Cl)c1 -2.6% [at 57.5 µM]
COc1ccccc1N1CCN(C(=O)C[C@@H]2O[C@H](CNS(=O)(=O)c3ccc(Cl)cc3)[C@@H](O)[C@H]2O)CC1 -0.156%
CC(C)NC(=O)C[C@@H]1C[C@H]2O[C@H](CNCc3ccccc3Cl)[C@@H](O)[C@H]2O1 -0.815% [at 57.5 µM]

— PubChem BioAssay AID1794844 (National Center for Advancing Translational Sciences (NCATS), 2023)
